A short description of this test: qHTS Assay for Modulators of Lamin A Splicing. The settings on record: HeLa LMNA splicing GFP/RFP minigene ratio, 48 h. In a few lines: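 S3 HeLa stable clones carrying a lamin A-EGFP splicing minigene plus DsRed2 were seeded at 600 cells/well in Opti-MEM with 2% FBS, pin-dosed and incubated 48 h at 37°C. Acumen cytometry (488 nm) gave the GFP/RFP total-intensity ratio.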
Background: In qHTS, concentration-response curves come from the screen itself.

The mark [1] stands for this setting: measured here: GFP splicing reporter channel.
Setting [2] is: measured here: RFP viability control channel.

Consider 35 molecules from PubChem BioAssay AID1487 (National Center for Advancing Translational Sciences (NCATS), 2009).

This is one part of the list. The main result of the screen is listed elsewhere. These columns were measured beside it and carry no call. Most of these compounds were active or inconclusive in the main read-out, so they are no random draw. The note in brackets gives the kind of curve behind each potency; many fits are weak.

Regarding `O=C(Cn1c(-c2cscn2)nc2ccccc21)Nc1ccc2ccccc2c1`, the half-maximal activity concentration (AC50) (commonly the concentration at which the activity in the assay is half-maximal) under setting [1] is 14.1 µM [falling, single point].

On to `CC(=O)Nc1ccc(Nc2ncnc3c2c(-c2ccccc2)cn3-c2ccccc2)cc1`, for which the AC50 under setting [1] was 0.00316 µM [falling, full curve, poor fit].

Turning to `Cc1cc(N2CCN(c3ccccc3Cl)CC2)n2cc(-c3ccccc3)nc2n1`, the AC50 under setting [1] is 11.2 µM [falling, partial curve, poor fit].

Turning to `CCOC(=O)c1ccc(-n2c(CN3CCN(CC)CC3)nc3ccc([N+](=O)[O-])cc3c2=O)cc1`, the AC50 under setting [1] is 3.16 µM [rising, single point].

Consider `Cc1ccc(OC(C)c2nnc(N)s2)cc1Cl` (configuration not stated), for which the half-maximal activity concentration (AC50) is 11.2 µM [rising, partial curve] under setting [1] and 14.1 µM [rising, partial curve] under setting [2].

On to `CCOC(=O)c1ccc(NC(=O)C2CCN(C(=O)c3ccc(OC)c(OC)c3)CC2)cc1`, for which the concentration at half-maximal activity (AC50) was 15.8 µM [rising, single point] under setting [1] and 25.1 µM [rising, single point] under setting [2].

`CC(C)c1ccc(S(=O)(=O)N2CCCCC2)cc1`: the half-maximal activity concentration (AC50) under setting [1] was 0.00501 µM [rising, full curve].

On to `CCOc1ccc2nc(N3CCN(C(=O)CS(=O)(=O)c4ccc(F)cc4)CC3)sc2c1`, for which the concentration at half-maximal activity (AC50) runs as follows: under setting [1], 12.6 µM [falling, single point]; under setting [2], 11.2 µM [falling, single point].

Regarding `CCOc1cc(CNc2ccc(N(C)C)cc2)cc(Br)c1OCC(=O)NC(C)(C)C`, the AC50 under setting [2] is 11.2 µM [rising, single point].

`Cc1ccc(NC(=O)CN2C(=O)S/C(=C\c3cc(C)n(-c4ccc(C(=O)O)cc4)c3C)C2=O)cc1`: the AC50 under setting [1] was 0.141 µM [falling, partial curve, poor fit].

Consider `COc1ccc(CNC(=O)CSc2nnc(-c3ccc(NC(C)=O)cc3)n2C)cc1`, for which the AC50 reads like this: under setting [1], 3.55 µM [rising, single point]; under setting [2], 5.01 µM [rising, single point].

As for `CCn1c(CCNC(=O)c2cccs2)nnc1SCC(=O)Nc1nc(-c2ccccc2)cs1`, under setting [2], the concentration at half-maximal activity (AC50) was 15.8 µM [rising, single point].

As to `Cc1ccccc1NC(=S)NC(NC(=O)COc1ccccc1)C(Cl)(Cl)Cl` (configuration not stated), the half-maximal activity concentration (AC50) under setting [1] is 5.62 µM [rising, full curve, poor fit] and the AC50 under setting [2] was 7.08 µM [rising, partial curve, poor fit].

Turning to `CC(C)CCC(O)(CCC(C)C)C(=O)NNc1ccccc1`, the concentration at half-maximal activity (AC50) under setting [1] was 11.2 µM [rising, single point].

For the molecule `O=C(O)c1ccccc1OCCOc1ccccc1`, the half-maximal activity concentration (AC50) under setting [1] was 4.47 µM [rising, partial curve, poor fit].

Turning to `O=C(Nc1cc(C(F)(F)F)ccc1Cl)C(Sc1nnc(-c2cccs2)o1)c1ccccc1` (configuration not stated), the AC50 under setting [2] is 17.8 µM [rising, single point].

On to `CC(NS(=O)(=O)c1ccc(OCC(=O)Nc2cccc([N+](=O)[O-])c2)cc1)c1ccccc1` (configuration not stated), for which the AC50 is, setting by setting: under setting [1], 10 µM [rising, partial curve, poor fit]; under setting [2], 11.2 µM [rising, partial curve, poor fit].

In the case of `CCOC(=O)c1noc2nc(C)n(CC(=O)Nc3cc(Cl)ccc3OC)c(=O)c12`, the concentration at half-maximal activity (AC50) under setting [1] is 0.00316 µM [falling, full curve, poor fit].

Consider `Cc1cc(C)c(C#N)c(SCc2ccc3c(c2)OCO3)n1`, for which the AC50 under setting [2] is 12.6 µM [rising, single point].

Regarding `O=C(COC(=O)c1ccc(Br)o1)Nc1cccc(S(=O)(=O)N2CCCCCC2)c1`, the AC50 by setting is: under setting [1], 25.1 µM [rising, single point]; under setting [2], 35.5 µM [rising, single point].

In the case of `CCOC(=O)c1ccc(NC(=S)N(CCN(C)C)Cc2cccs2)cc1`, the AC50 under setting [1] is 11.2 µM [falling, partial curve, poor fit].

As to `CCOC(=O)c1c(-c2ccccc2)[nH]c2ccc(O)cc12`, the half-maximal activity concentration (AC50) under setting [2] was 7.94 µM [rising, partial curve].

`COc1ccc(OCCCC(=O)Nc2cccc([N+](=O)[O-])c2)cc1`: the AC50 under setting [2] was 35.5 µM [rising, single point].

For `Oc1c(C(c2ccccc2)N2CCN(Cc3ccccc3)CC2)sc2nc(-c3ccco3)nn12` (configuration not stated), the AC50 was 0.0126 µM [falling, full curve] under setting [1] and 0.0891 µM [falling, full curve, poor fit] under setting [2].

As for `COC(=O)/C=C1/N/C(=N\c2nc(C)cc(C)n2)N(c2cccc(C)c2)C1=O`, the AC50 reads like this: under setting [1], 17.8 µM [rising, single point]; under setting [2], 35.5 µM [rising, single point].

Regarding `COC(CNC(=O)C1CCCN(S(=O)(=O)c2c(C)noc2/C=C/c2cccs2)C1)OC` (configuration not stated), the half-maximal activity concentration (AC50) under setting [2] was 10 µM [falling, partial curve, poor fit].

Consider `Cc1ccc(S(=O)(=O)N(C)C)cc1NC(=O)COC(=O)c1n[nH]c(=O)c2ccccc12`, for which the AC50 under setting [1] is 7.08 µM [falling, full curve].

Consider `CC(C)C/C(O)=C/c1nc2cc(Cl)ccc2oc1=O`, for which, under setting [2], the AC50 is 10 µM [rising, partial curve].

Regarding `Cc1ccc(-c2nc3scc(CCNC(=O)c4cccc(Br)c4)n3n2)cc1`, the AC50 under setting [1] was 35.5 µM [falling, single point] and the AC50 under setting [2] is 0.00794 µM [falling, full curve, poor fit].

Consider `CSc1ncc(Cl)c(C(=O)Nc2ccccc2Cl)n1`, for which, under setting [2], the AC50 is 0.0224 µM [rising, full curve, poor fit].

In the case of `O=C(Nc1ccc(-c2noc(-c3cccs3)n2)cc1)c1cccnc1`, under setting [2], the half-maximal activity concentration (AC50) was 35.5 µM [rising, single point].

Take `CC(=O)c1ccc(NC(=O)c2ccc(CSc3ccccc3)o2)cc1`: the AC50 is, setting by setting: under setting [1], 17.8 µM [rising, partial curve]; under setting [2], 14.1 µM [rising, partial curve].

On to `Cc1cc(C)n2nc(C(=O)NC(c3ccccc3)c3ccccc3)nc2n1`, for which, under setting [2], the half-maximal activity concentration (AC50) was 11.2 µM [falling, single point].

Take `CCOC(=O)c1sc(NC(=O)c2c(C)nn(Cc3ccccc3)c2C)cc1C`: the AC50 is 35.5 µM [rising, single point] under setting [1] and 35.5 µM [rising, single point] under setting [2].

On to `Cn1c(=O)c2c(nc(NC3CCCCC3)n2CC(O)COc2ccccc2)n(C)c1=O` (configuration not stated), for which the AC50 under setting [1] was 11.2 µM [rising, single point].
